# Data as given in PMC5996148.
# The chains behind the UniProt entries cited, without tags or fusion partners. Where a name states a change or a piece, a line headed by the entry shows the natural chain unless it says otherwise.
# UniProt Q9Y450, whole entry: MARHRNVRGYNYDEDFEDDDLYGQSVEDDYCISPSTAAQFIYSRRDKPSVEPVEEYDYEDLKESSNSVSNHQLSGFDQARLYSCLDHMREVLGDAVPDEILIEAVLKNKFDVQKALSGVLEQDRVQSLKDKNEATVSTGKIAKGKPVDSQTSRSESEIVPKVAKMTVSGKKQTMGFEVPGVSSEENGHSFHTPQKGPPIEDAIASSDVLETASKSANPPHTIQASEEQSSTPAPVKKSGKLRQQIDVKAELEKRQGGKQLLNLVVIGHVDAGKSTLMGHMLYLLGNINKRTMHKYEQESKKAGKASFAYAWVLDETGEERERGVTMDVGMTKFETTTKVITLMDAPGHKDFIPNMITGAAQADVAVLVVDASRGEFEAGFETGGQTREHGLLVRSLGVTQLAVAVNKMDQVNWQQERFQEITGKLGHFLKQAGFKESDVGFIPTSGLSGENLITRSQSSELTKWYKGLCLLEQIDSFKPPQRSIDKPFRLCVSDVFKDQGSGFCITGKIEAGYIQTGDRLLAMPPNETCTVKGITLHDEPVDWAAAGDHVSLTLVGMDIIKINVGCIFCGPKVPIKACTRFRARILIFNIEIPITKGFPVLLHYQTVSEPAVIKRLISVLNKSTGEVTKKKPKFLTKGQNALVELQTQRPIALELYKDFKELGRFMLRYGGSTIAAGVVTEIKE
# UniProt Q9Y3E1: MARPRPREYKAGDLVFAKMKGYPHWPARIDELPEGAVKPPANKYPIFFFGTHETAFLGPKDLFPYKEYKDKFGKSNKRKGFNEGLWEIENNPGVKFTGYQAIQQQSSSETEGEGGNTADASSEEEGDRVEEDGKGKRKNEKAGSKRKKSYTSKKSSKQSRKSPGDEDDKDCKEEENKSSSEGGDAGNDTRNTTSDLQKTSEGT
# “And” between values parts separate entries of the source, which are not always exact repeats. Equal values may be shown once. The list shows a part of the results. For some of these results: The exact form of the protein is not confirmed.
# Legend:
# Assay in all cases: protein microarray (ProtoArray v5.0), streptavidin-Alexa Fluor 647
# Settings in all cases: 3'-biotin; 20 mM Tris (pH 7.5), 5 mM MgCl2, 100 mM KCl, 0.1% Tween-20, A/T-rich and random oligonucleotide blockers; temperature not stated; high values mean tight binding
# [1] = test system: HBG1 (human)
# [2] = target: HBS1L (UniProt Q9Y450)
# [3] = test system: HBZ (human)
# [4] = test system: HCCS (human)
# [5] = test system: HCG3 (human)
# [6] = target: HDGFRP3 (UniProt Q9Y3E1)
# [7] = test system: HDHD3 (human)
# [8] = test system: HEBP1 (human)
# [9] = test system: HEL308 (human)
# [10] = test system: HFE (human)
sequence,measurement,setting,value
GGTGACAGGGGTATGGGGAGGGG [G4-2 biotinylated (Ct1)],binding signal,[1],-0.384 z-score and -0.373 z-score
same,binding signal,[2],5.01 z-score
same,binding signal,[3],-0.401 z-score
same,binding signal,[4],-0.366 z-score
same,binding signal,[5],-0.389 z-score
same,binding signal,[6],4.76 z-score
same,binding signal,[7],-0.378 z-score
same,binding signal,[8],-0.378 z-score
same,binding signal,[9],-0.382 z-score
same,binding signal,[10],-0.384 z-score
